Paper PMC11651612
No constants are given. Whether binding was seen depends on the method and setting. Binding seen in cells or lysates may run through a third protein. Here binding means that the protein was enriched with, or labelled near, the bait; the list need not be complete.

T1: Cdc3-mCherry (C. neoformans) (UniProt J9VUF2)
T1 sequence: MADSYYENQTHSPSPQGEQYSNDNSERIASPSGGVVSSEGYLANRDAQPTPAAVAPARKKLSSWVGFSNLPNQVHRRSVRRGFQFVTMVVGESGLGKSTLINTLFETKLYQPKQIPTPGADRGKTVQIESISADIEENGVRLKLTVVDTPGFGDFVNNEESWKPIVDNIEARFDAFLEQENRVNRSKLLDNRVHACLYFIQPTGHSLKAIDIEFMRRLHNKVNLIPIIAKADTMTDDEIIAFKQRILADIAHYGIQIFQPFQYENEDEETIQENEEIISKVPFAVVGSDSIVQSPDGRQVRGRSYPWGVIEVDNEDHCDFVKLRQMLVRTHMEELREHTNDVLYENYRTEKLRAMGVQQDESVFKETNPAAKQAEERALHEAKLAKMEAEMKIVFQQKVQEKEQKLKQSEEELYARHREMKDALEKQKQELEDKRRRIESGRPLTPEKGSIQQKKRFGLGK

B1: Cytochrome c oxidase subunit (protein, UniProt J9VPH6 1-82)
chain: MAEDKTFVLQTTGFDARFPNQNQTKHCWQNFVDYHKCVNAKGEEFAPCQQFKKAFRSLCPNDWVGQWNEQIEAGTFPASLKP
B2: Heat shock protein 9/12-domain-containing protein (protein, UniProt J9VJQ8 1-70)
chain: MSDAGRQSLADKASSSMKPDSEKSYVEQASDFISGKLDSAASAVQPQQEKSTTQKIGDAVSGDNRNRDVA
B3: U4/U6 small nuclear ribonucleoprotein PRP4 (protein, UniProt J9VQ13 1-511)
chain: MDLDDLITDNTYQLGGIDDERERAQNAAIIEELERKKRLRKLAVPTDDKKVRERLRAYGEPITLFGEGPGDRRDRLKYVQEQIEQAKGEGGMVVDESDESSDEDEEGEFYTEGSDDLLEARRKIARYSLSKARARIARQRREYSVPLGKLVNARKELFKELKSFNNFGSQFGDDRPLSTIRFSPSSQYILTTSWTGDTKLWDLPNLNPISTKRGHTEKVGGAAWHPFATVGASEEAVNFATGGGEGDVKLWSLSGEKPLSTLSGHTSRVGRLAFHPSGAYLASAGFDGTWRLWDVESSKELMTQEGHSKEVYAVGCQDDGALIASGGFDAIGRVWDLRTGRTAMVLDGHVKEILAMDFAPNGYQIATGSGDDTVRIWDLRALKTQYIIPAHKSSVADVKFFRSSGELPPIGIQGLPLSSRAAEVDGMDVDKSNDTEDKEKEERLSRSGMFLVTAGFDCNVRIWSADEWNMVRNLSTDAGKVMSVDVSGDGKFVASASYSRSFHLFGGENSL
B4: Hsp90 chaperone protein kinase-targeting subunit (protein, UniProt J9VJV8 1-504)
chain: MPLNYSKWDMLELSDDSDIEEHPNVDKKSMIRWKQRDIHEKREARKLLISKLKSELSLNSVLRPRIETIISGLSSSGLDHYRAVQRRMKEDPSPEKPETGAPNQPTYDMMLSQLLSDVFREGAWLVEGGKVEGNGVLYNGKKVDDNTGLPDWATAEVPEGKKELLAEKLEQRLRWHVSELNRRDEQVKKEIEKEEGELKKKITSDDIHEGWSSSKIAPPKPSVWDETPKPKKGKKTEKVETIEVLNPKASSSAAPVAPATEDTDDEEDFGPLSPAGRAFAQIPLGDFEKSYDFIKNDSSVLSSSTHDSLLAEAFDAERRGDKSLAMRCVHQSLLVNYCRQLGKDGVGLFFQKMIQKNPKSITMFNEDFQRTYNRIATRTREILAEEAAAPSGEREQIQLVATDPNMTIAFNLPDGPPPEKILLEGEGVEELDMEQVRAWLQQKWDIFKSFPPRFQEALKTENLDKVNKVLGDMKVPEAEKIVELLQEGGMLSFSEKGVRDMTNQ
B5: Inositol hexakisphosphate and diphosphoinositol-pentakisphosphate kinase (protein, UniProt J9VSQ9 1-1117)
chain: MSMLPPKSPSVKRFTQNTEKRPTSPSPSSLLMNLNTPSLAAPKQPKVVLGVCAMDVKARSKAMREILTRLVDIEKGGLEVKIFGDVVILEEDISHWPPVDVLISFFSTDFPLPKAISYTQLPNRPPPISINSLSMQSLLWDRRLVLAILDHIGVPTPSRAEISRDGGPRIPRSLRRQVRRELGLVLPGPKAKDEDEWGEVVIPEKWRGKQRKDPVPKATEVILREDGDAILVGDHVIEKPFVEKPVDGENHNVFIYYKGGGGRRLFRKVGNKSSEYDPNLYHPRTIGSFIYEEFINVDNAEDIKVYTVGSKFSHAETRKSPVVDGLVRRNADGKETRFITPLSEAENQYARDVVEAFGQRVCGFDLLRCEGGSRSMVIDVNGWSFVKGNQAYYDKAAEILSGVCQIARERKVQGIQAGLASTTTIDDPSGGSTTSTLRATVTVLRHADRTPKMKLKFSFPAHEAWSQPFLRLLRGHREEIILRDTRQLQYILAAAEESSQTPGITGEQLLKLSQIKEALGKKMSFPGTKAQLKPSFVKKKGDKNEKKDKKKNDEDKEDEGDVTETEGRKKVNDWLRKGESAQAANMDSTLLTEPPMSATGSVDAIPQSSEPRSPEPETTQDETVKDKHAGCVSDPDIPEGLEKMQLVVKWGGESTHSSRYQSRDLGDAFKKDIMIMNKDVLNNVKIYTSSERRVINTAQIFAHALLGVEGSSSSSASSIANARNPPEQGPQISHLIQRRDLLDDNNAAKDLCTDAKKKLKMLLRTGETERRPDLAWPKSFKKEPVEVVSDVIEQLTELRAIMRRNYENGNVEKIPQQRWCSGDSPWLFKERWEKIFDDWVGVKQEKFDPSRVSELYDSIKYDSLHNRTFLFAVFDPAGKGQASKAGAPNQDRRLHDLFGRAKALFDLVAPQEYGFDAEAKEEIGVLTSLPLLRKVWEDLDEAKTTGKSLACFYFTKESHITTFVHLLLASGLPFTNVRIPELDYCSHCTIELWEKSTGSGQKDFSIRLSISEGAHSPAVLDSNVDARHSLTVQPRKKLSSHIDYELARQCFSKHFNKGLSFSTTPLEGDEVYLKKSIEDESVLPLSSLHHKAGDETPRMISSASSDRSHPGASDGGW
B6: DASH complex subunit DAD3 (protein, UniProt J9VIU7 1-112)
chain: MSINTVNPYENNSQLSQLEQELLWEFAKLSDKVKRAASLAKLTAESPNESLLAELRTLEKRMGLVLTLVKASVWAVIVDSQAAEEARQQQSAESAPEISHNETRSWDDSIMQ
B7: U3 small nucleolar RNA-associated protein 5 (protein, UniProt J9VI77 1-714)
chain: MAPRQPVAGPSKPKHSQQPAIQSPPAPAAVSAFNSTRTLFALASPVLGQADKVQVWDVAGDRVISEWEVVGASKASSVCFTTVPSDAASTKKKRRKSGSGRGAEEEVVLVTTSKSQLLVLSTKQTEPLRTLDLPASVTAAWSEERASILATASSLLVLSADASSISHTFTLPSSLSSPTAITILPTSTAESLHVLVASSLVVTLHLSLASQEVTFVSSPLPASTSSISSLLPLPLTEQGASFLVVSEDDRTISQYTLTSPQSPARLSYRYASPTLSSAHSITADPDLLAVLHESGEISLFRLPSELDLSRPQSDAKPSTVKIVEGKEERTARLCRVAFAPVDDGASGALLCGRLTGGGRVKWSRAIYELPEGGLRPVTVVKVEAQELVGASSVSETVPVQRYVAPNTVNEAAPEDVDEAPVSQLPSDVNMAELSLGERMLAPDSQEADTGSKPAASSAGVTLDGPVNAASLTRVLVQALHTSDPALLTLCLSHRNPVLIRNTIRKMPPQLALPLLKACVERLGQGKGANKRGGGRGAAQNEQQGRGTVEWVKGVLVERGSILMTIPSLPVHLASLSQLLQNRLELNQPLQTLSGRLDLALAQITMRRIAAEQALENAKNGGQKGGEGEIYVEGESEDEDEIIEVGEDGGEIEDIDMGGLSESDESEEEEEEEEDEDEDEESDDDPLDSGSDNDLLDLQAEESGSDDEEESEDED
B8: NAD-binding Rossmann fold oxidoreductase (protein, UniProt J9VMJ0 1-400)
chain: MSTNVALLGSGVFAQASYVPALLSLARFKTLVLHTIWSRSESSAQTLHAKYTSVGAPSPQLLYGDDGLEAVLANKEIDAVLFVLPITKQPDLVRKAWKAGKHVLSEKPLARDVKEAVELIEEYERDYKPKGLIWRVAENYAHEPALRFAGDILSKTPNLGPVLFWDIKFTAYVEDGSKYHATGWRTIPDYQGGFLLDGGVHWAALLRTVLPPAALPASFIGFASLHRTHLLPHDTIQAIALPDPSATIPPNGPKSKLDSAVYTEKDLASQPGQSTPRGQITFSFANPDMPPEGRTSNGLVVTLLNGVLTIEQTFDRRFITTLIPAEGSGLEKKTITTKQVGVEVEIEMFVNAVQAIKEGRENKEENFGEPRGALWDLSVLEAMLKSDGKEINLESLVKGE
B9: Tip120-family protein (protein, UniProt J9VQT6 1-1266)
chain: MSRTTTVPLNSQLPGLLEKMRSIDPDYRIMALVDLNKELNRTLAPQPSLTRRPDPHYTDDYTESQLVEMVLKLLADTNGEVKSAAVSCISLMVKKPRPSSLSKIINSLLEDVSSDNDERRDTSCLALKNVVLEMPSESQQVLSDIERIVTRVFKLFTNEIHPQIASELLQILTDLFVRFSPNVASSATIQSTALSSLIQILNNARPAIRKRAVPTLSSLIATSPKLFNEDLEKEIVNGVSQSGESSRIWMGTVASLARGKSAGSIGKLVNEGRLAELILNQTKNDDVETVEAALTALEALVLKCPSEMFPHISSITQRSLVLVKYDPNYVDLEDDDDDDVDMASDAEDDEEDEYGDADYSDEDDDSWKIRRSSAKLLRALIFTRPDLLSELYNSVTPVLISRFAEREESVRLEVLAAFEMLLRQTATSRSTDLATGGRNKRKRSEGMDEDYVSDDGPISSLQSYLPQLSKAILTQLSSKSVPTRQQSFNLLRQAATALGGGLDDSADPICTAAASALRTIDSATSSSLAIATLSFLAVFFDTHSARTFASHLGELVPAIVRCMKDKLQRISFEAFDTASSLTKSLRPAGSSASVSGDFSIPIQEVFLATTQVLGDNSVDGDVREKALATLGSVLVQSGDLFASSFSTSLPLITNRLGSESTASTAIVVIGQLAASPQCKGPEFEGWLLQILPEVVVALRRTKRGTSKNVEFTCLLSIIERVGKALPVDLAEGLIIELTPVIDTPMALQTIAIVLTHQPSARPTVDAQLYPKILTILKTSLNPHLVDALAEFFTAYAASLNSPERAVQLVQELSNNLGSGKRDSLPDATNGGTAAWGTTAKCVGGVIKGEIASAGESLALFEDVVKGKNVKETDAYLALLCIGEIGRIVNLSTKIDLFEIILSFFKHDSEEVRSAAAFAAGNLAVGAPAVYVPAIITRISAAKDESERLLLLHAIKEVILHSPSAQLESLADTLWAPLFSATDATPASKADSTGGDGIRNVIAACIGKLTTTVPAKFLPQLQQLLYSSPSNRAIVAAAVRYTFIDTSNGYDELIAPIIVEFLSLMKDENLIVRRLSLASLNAALQNKPHLIVDKLDILQPLLYQETYVKKELQREVTMGPWKVIEDDGLENRKTAYETMYTLLGACFSKIDLLTFTARVLVSLSDVNEVKVLGLMLLLRLGQVSPESVIPRLDEVVESLKGMMKDVEVKDDTIKQDLERKAEMQRSTLRTVVPLYKSSTPQQAPAFHAFVENLLANEKWKEFREYQA
B10: Thioredoxin (protein, UniProt J9VKF2 1-104)
chain: MVKAIESYDEWKTLTSGSDVVVVDYWATWCGPCKMISPHFAKLEGKFPNVKFAKVDVEEQEDIAKEAQIKAMPTFVAYKDGKVIETVTGAVPAKINALLDKVAA
B11: protein-ribulosamine 3-kinase (protein, UniProt J9VPD5 1-303)
chain: MPTITQPIANIFKAAHIPANELSIAASTSGFIITHSTTGKQYFTKTDRNVPQMRGEVASLLAMSKTSTGLVPEVLGFEVSPDGKEATMVTQWFDLSSARGGHTQRGLGSKLAQMHMPPPEGTEGYEGKYGFPVPTHCGATEQDNTWEESWEVFWRDRRLGNLVNRIGDKEINALWEDMKRRAVPLLLHSFSPAPQPVILHGDLWSGNAGYDETTSSPVIFDPASYYGHNEADLGITRMFGGFSYEFYDEYHQVHPRSSPYYNERQKLYELYHHLNHTYMFGGSYKHGAMGIMKSLIEWAEKEE

biological target: T1, Cdc3-mCherry (C. neoformans); test: affinity purification with mass spectrometry; mCherry-tagged septin captured from C. neoformans lysate on RFP-Trap agarose, 4 h at 4°C, washed with TBS with 2 M urea pH 7.5; GeLC-MS/MS; untagged H99 as negative control; hits logFC >2 and adjusted p <0.001 (text-named hits <0.05); exponential cultures at ~25°C or shifted to 37°C for 2 h; N = 5

binding, binds:
B1
B2
B3
B4
B5
B6
B7
B8
B9
B10
B11
